Test results from patent publication USRE39350.
The exact form of at least one protein or probe is not confirmed.

Test system: His-tagged RB47 (Chlamydomonas reinhardtii)
Test: binding assay
Details: similar binding characteristics to recombinant precursor; method not stated; purified recombinant protein; protein details: N-terminal His tag (pET19-D), mature form; label: radiolabeled

CGUCCUAUUUUAAUACUCCGAAGGAGGCAGUUGGCAGGCAACUGCCACUGACGUCCCGUAAGGGUAAGGGGACGUCCACUGGCGUCCCGUAAGGGGAAGGGGACGUAGGUACAUAAAUGUGCUAGGUAACUAACGUUUGAUUUUUUGUGGUAUAAUAUAUGUACCAUGCUUUUAAUAGAAGCUUGAAUUUAUAAAUUAAAAUAUUUUUACAAUAUUUUACGGAGAAAUUAAAACUUUAAAAAAAUUAACAU [psbA 5' UTR RNA]
binding result: binds
